PubChem BioAssay AID1259405, NCATS, 2018

Purpose: 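Knock-downs that lift recombinant protein yield in hamster ovary cells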 (primary screen)
System: Chinese hamster CHO-K1 ovary cells with stable secreted eGFP expression
Knock-down reagent: single siRNA against mouse genes, 0.8 pmol siRNA per well (2 µl of 400 nM stock)
Time to read-out: 3 days
Detection: 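Percent of the per-plate non-targeting control median for intracellular GFP per well by laser scanning cytometry and for cell viability by ATP luminescence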
Scale: GFP, % of control: higher = more GFP per well, higher productivity; viability (ATP), % of control: higher = more viable cells (more ATP)
Hit rule: 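Called active when intracellular GFP, relative to negative control, is at or above 120%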
Here is one part, drawn at random, of about 50,000 reagents. In the full data, about 4,000 (8%) are marked active. 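Mouse siRNA library applied to hamster cells; one well for each siRNA.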 A number with no mark means an inactive call. Reagents against one gene are numbered here.

Sstr1 (somatostatin receptor 1) #1: GFP, % of control = 81.2; viability (ATP), % of control = 56
Sstr1 (somatostatin receptor 1) #2: GFP, % of control = 150 (active); viability (ATP), % of control = 88.7
Sstr1 (somatostatin receptor 1) #3: GFP, % of control = 115; viability (ATP), % of control = 87.5
Sytl5 (synaptotagmin-like 5) #1: GFP, % of control = 93.1; viability (ATP), % of control = 129
Sytl5 (synaptotagmin-like 5) #2: GFP, % of control = 84.5; viability (ATP), % of control = 73.4
H2-DMa (histocompatibility 2, class II, locus DMa) #1: GFP, % of control = 73.5; viability (ATP), % of control = 77.6
H2-DMa (histocompatibility 2, class II, locus DMa) #2: GFP, % of control = 63; viability (ATP), % of control = 63.2
Or52ad1 (olfactory receptor family 52 subfamily AD member 1) #1: GFP, % of control = 232 (active); viability (ATP), % of control = 114
Or52ad1 (olfactory receptor family 52 subfamily AD member 1) #2: GFP, % of control = 103; viability (ATP), % of control = 90.3
Or52ad1 (olfactory receptor family 52 subfamily AD member 1) #3: GFP, % of control = 59.3; viability (ATP), % of control = 75.5

The list goes on (2 carried over from the part before).
Or52ad1 (olfactory receptor family 52 subfamily AD member 1) #2: GFP, % of control = 103; viability (ATP), % of control = 90.3
Or52ad1 (olfactory receptor family 52 subfamily AD member 1) #3: GFP, % of control = 59.3; viability (ATP), % of control = 75.5
Bbs12 (Bardet-Biedl syndrome 12) #1: GFP, % of control = 88.7; viability (ATP), % of control = 82.4
Bbs12 (Bardet-Biedl syndrome 12) #2: GFP, % of control = 78.7; viability (ATP), % of control = 56.5
Bbs12 (Bardet-Biedl syndrome 12) #3: GFP, % of control = 98.8; viability (ATP), % of control = 77.1
Opn1mw #1: GFP, % of control = 76.4; viability (ATP), % of control = 58.1
Opn1mw #2: GFP, % of control = 92.3; viability (ATP), % of control = 73.8
Opn1mw #3: GFP, % of control = 92; viability (ATP), % of control = 83.6
